Measurements: publication PMC12825198
Results are given in words; binding and its absence hold for the method and conditions named. In cells and extracts the contact can be indirect. Some entries that bind do so weakly or less than the wild type. For some assays here: Where a sequence is shown, tags or fusion partners need not be part of it.

The chains behind the UniProt entries cited, without tags or fusion partners. Where a name states a change or a piece, a line headed by the entry shows the natural chain unless it says otherwise.
UniProt P05556: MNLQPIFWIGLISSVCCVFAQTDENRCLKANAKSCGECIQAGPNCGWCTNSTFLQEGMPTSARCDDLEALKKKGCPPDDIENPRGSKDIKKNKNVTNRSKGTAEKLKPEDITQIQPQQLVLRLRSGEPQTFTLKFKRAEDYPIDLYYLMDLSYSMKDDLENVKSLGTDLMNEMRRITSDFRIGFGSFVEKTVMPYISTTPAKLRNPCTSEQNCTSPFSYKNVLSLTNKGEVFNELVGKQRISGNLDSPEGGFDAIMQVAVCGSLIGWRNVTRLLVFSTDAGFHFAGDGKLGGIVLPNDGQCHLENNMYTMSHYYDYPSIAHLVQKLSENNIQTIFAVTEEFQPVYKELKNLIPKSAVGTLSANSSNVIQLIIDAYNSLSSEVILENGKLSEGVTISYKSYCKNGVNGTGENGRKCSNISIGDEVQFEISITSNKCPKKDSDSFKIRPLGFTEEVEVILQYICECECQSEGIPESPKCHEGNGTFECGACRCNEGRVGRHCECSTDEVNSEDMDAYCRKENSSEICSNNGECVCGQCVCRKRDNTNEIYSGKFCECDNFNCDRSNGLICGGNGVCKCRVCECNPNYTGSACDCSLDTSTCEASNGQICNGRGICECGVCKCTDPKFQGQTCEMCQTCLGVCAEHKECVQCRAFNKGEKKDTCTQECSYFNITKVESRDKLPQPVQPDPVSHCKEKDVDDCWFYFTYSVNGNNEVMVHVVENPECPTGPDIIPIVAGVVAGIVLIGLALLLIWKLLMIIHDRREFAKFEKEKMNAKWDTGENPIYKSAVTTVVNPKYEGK

Experiments:
[1] = target: T1, GST-tagged recombinant human PXDN protein (human) (UniProt Q92626); experiment: pull-down; lysate of 2 x 10^7 cells incubated overnight at 4 C with GST-tagged recombinant human PXDN (5 ug), anti-GST magnetic beads 2 h at 4 C, immunoblot; only the target purified
T1 sequence: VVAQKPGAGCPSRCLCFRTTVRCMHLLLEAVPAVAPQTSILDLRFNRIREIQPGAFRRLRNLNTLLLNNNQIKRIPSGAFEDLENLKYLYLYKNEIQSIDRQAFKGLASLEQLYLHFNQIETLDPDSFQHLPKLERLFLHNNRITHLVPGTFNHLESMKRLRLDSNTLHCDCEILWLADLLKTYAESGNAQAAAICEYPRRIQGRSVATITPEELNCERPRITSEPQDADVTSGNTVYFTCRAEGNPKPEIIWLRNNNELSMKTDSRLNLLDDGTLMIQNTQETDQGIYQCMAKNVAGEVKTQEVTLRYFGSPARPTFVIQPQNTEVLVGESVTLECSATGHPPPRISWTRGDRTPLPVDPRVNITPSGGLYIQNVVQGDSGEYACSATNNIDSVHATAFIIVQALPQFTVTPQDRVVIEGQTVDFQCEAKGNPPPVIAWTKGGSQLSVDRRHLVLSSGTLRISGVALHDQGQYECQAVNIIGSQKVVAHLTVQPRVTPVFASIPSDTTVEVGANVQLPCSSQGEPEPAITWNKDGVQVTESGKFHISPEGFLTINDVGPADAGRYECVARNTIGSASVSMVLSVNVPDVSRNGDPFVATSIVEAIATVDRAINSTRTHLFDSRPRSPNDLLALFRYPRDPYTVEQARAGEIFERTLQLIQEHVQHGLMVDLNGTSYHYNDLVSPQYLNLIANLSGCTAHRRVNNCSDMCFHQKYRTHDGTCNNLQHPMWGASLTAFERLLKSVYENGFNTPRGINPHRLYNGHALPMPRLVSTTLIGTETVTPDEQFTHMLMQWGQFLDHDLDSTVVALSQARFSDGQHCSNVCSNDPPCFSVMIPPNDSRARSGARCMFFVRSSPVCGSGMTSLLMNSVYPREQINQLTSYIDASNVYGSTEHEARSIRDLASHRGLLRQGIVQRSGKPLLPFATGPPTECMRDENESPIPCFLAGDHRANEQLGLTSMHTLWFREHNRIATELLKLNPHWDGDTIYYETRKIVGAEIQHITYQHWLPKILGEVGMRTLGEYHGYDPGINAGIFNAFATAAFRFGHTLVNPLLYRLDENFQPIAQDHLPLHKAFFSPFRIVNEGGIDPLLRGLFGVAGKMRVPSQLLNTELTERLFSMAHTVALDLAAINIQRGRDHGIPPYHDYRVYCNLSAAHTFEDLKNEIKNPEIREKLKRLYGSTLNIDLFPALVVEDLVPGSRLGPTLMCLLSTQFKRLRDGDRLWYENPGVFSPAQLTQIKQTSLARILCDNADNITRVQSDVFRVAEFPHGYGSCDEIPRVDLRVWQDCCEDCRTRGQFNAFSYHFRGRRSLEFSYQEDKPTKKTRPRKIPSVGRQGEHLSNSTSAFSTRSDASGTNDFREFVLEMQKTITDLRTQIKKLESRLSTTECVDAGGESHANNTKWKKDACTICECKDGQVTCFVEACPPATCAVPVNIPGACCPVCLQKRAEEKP

[2] = target: T2, peroxidasin (PXDN) (human (endogenous in HK1)) (UniProt Q92626); experiment: co-IP; lysate of 2 x 10^7 cells incubated overnight at 4 C with anti-PXDN antibody (5 ug), protein A/G magnetic beads 2 h at 4 C, immunoblot; IgG as control
T2 sequence: T1 sequence

Substance: ITGB1 (from UniProt P05556 21-798) (receptor)
- binding [1]: binds
- binding [2]: binds
